These results are taken from the RNAGym collection of RNA variant scans (doi:10.1126/science.aae0568).

The chains are these.
B1: tRNA (parent)
chain: GUUCCGUUGGCGUAAUGGUAACGCGUCUCCCUCCUAAGGAGAAGACUGCGGGUUCGAGUCCCGUACGGAACG

This sample is rich in variants without activity.

Variants of B1 are the subject of this data set. Put plainly: yeast fitness relative to wild type (ratio to wild type); higher = fitter; tRNA-Arg(CCU), competitive growth, 37 C, YPD. The gist of the method:
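Changes in genotype frequencies gave Darwinian fitness relative to wild type. Frequencies were read by 100-nucleotide paired-end sequencing of gene amplicons before and after pooled Saccharomyces cerevisiae strains, carrying tRNA-Arg(CCU) gene variants at the native locus, were competed in YPD at 37°C for 24 hours in six replicates. A genotype was kept only with ≥ 100 starting reads, and estimates < 0.5 were set to 0.5.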
For C22G G51C C66U, the yeast fitness was not above 0.5.

For the variant C4G C34U A57G C60A, the yeast fitness is not above 0.5. U2A C5A G41A A42C G50C A70G: the yeast fitness is not above 0.5. Turning to A15G C24G C29U, the yeast fitness was not above 0.5. Under U7A G12C A14G A21C A70G stands not above 0.5.

Consider C5U C34G U35C, for which the yeast fitness was found to be 0.533. In the case of C27G C30A C34G A45G C62U A69G it was not above 0.5. Under C5A A37G A40U stands not above 0.5. In the case of G9A A21G C33A C62U G63C A70C it was not above 0.5; in that of U19A G41A C55G G58U, not above 0.5. As to G9A G10A C31G G52A A70G, the yeast fitness was not above 0.5. Under C4A C27A G38A stands 0.513. In the case of C31U C55U C61U A70G it was not above 0.5.

With A20U A21C A36C A70C, the yeast fitness is not above 0.5.

For C5G G6A C60A C66U, the yeast fitness is not above 0.5. Under G10A A42C A69U stands not above 0.5; under A45G C46G U47A C62G A65C, not above 0.5; under U26A U28A C31U C66G, not above 0.5. For the variant U16C G51A, the yeast fitness worked out at 0.633. As to C5G G23C C31G C60A A70U, the yeast fitness is not above 0.5.

With G12C G18C C27G G63C, the yeast fitness is not above 0.5. Regarding C5A C30U C60U, the yeast fitness was not above 0.5.

On to A20C C55U G67C, for which the yeast fitness was not above 0.5. In the case of A37G C55A A70U it was not above 0.5; in that of U7A C34G U53A, not above 0.5; in that of C4G C34A A40G, not above 0.5. In the case of C22U C33G C62U A70U it was not above 0.5; in that of C5A U16C C29U A37C G56C, not above 0.5; in that of C11A A15C C24G U59A G68A, not above 0.5. With A20G G25A A43U A69U, the yeast fitness was not above 0.5.

Take A57G A65G C66U: the yeast fitness stood at 0.65.

Take A15C A37C G68C: the yeast fitness is not above 0.5.

For C11G C22U C34A A45G, the yeast fitness is not above 0.5. In the case of G6C G9C G18U U54C it was not above 0.5.

In the case of U2A A15G C22U, the yeast fitness is not above 0.5. Under U2G U47G G58C stands not above 0.5; under C5U U7A C30A G58C, 0.543; under C5G U7A C11U A36C G38A G44C, 0.589. Under G10A G48A A69C stands 0.628; under G6A C11G A15G U26A U32A G38A A40C, not above 0.5; under A21C C62G G68C, not above 0.5. G9A C11G C22U A40G G67A: the yeast fitness is not above 0.5. In the case of A20C C22U G58A G67A it was not above 0.5; in that of C11U G50A C62U G63A A65U, not above 0.5; in that of C31U C34A U47A, not above 0.5. In the case of A14U A15U C34G A69C it was not above 0.5; in that of U3A C5G A21U C22U U32A C49G G67A, not above 0.5. Under A14C C24U A36G stands 0.591.

In the case of C31U A45U C60U, the yeast fitness was not above 0.5.

Consider U2A C24U U35C C66U, for which the yeast fitness is not above 0.5. Under A20U C27A A37C stands not above 0.5; under C4G G18C C55G, not above 0.5; under A20C G39C G48U C49U, not above 0.5. For the variant A14C U16A U26C, the yeast fitness is not above 0.5. On to C55G G63U A69C, for which the yeast fitness is not above 0.5. Under U19C A20C C33U U35A G58A stands not above 0.5; under U8C G44A U53C, not above 0.5.

On to C5A G10C G56C, for which the yeast fitness was not above 0.5. With C34A A42U A70U, the yeast fitness was not above 0.5.

On to U19G C62U, for which the yeast fitness was 0.857. Under C4G U26A U47G U54C stands not above 0.5; under U26G C62G G68A, not above 0.5; under G12C A14C U26C A40G G56A C66U A69U, not above 0.5.

On to C22G C24G C27G C60G, for which the yeast fitness is not above 0.5. Under U7A A14G C31U G39C A40C A45U G68C stands 0.555; under C22G C34G C61G A69G, not above 0.5; under G17A C49G, 0.761.

In the case of U3C G12A A21G C46G G50A, the yeast fitness is not above 0.5.

Take C5A C34A C46U A57G: the yeast fitness was not above 0.5.

G25A A37U A43C C55A C60G G63C: the yeast fitness was not above 0.5. Under C27G G58A stands 0.698; under U2C U16A G38C G58C, not above 0.5; under G10A C33U C60G G67A, not above 0.5. Regarding U54C G68A, the yeast fitness amounted to 0.937. In the case of A37G U59A it was 0.663; in that of U26A G58C, 0.98. In the case of A20U U32G U54A it was not above 0.5.

As to U7A G9C G17C G48A U53A, the yeast fitness was not above 0.5. Under A40G G41C C55G stands not above 0.5; under U2C U28A A70C, not above 0.5; under C4U C22G U28A A36U C55G C62U, not above 0.5. Under G17A C24A G41A A45C G58C stands not above 0.5. As to C4U C5A A36U G39C C60A G63A G68A, the yeast fitness was not above 0.5.

Consider C11U A40C U53A C66A, for which the yeast fitness was not above 0.5. Turning to C11G C24G C30U A43U C60G A65C, the yeast fitness is not above 0.5.

On to U2G G9C C55A, for which the yeast fitness is not above 0.5. As for G25A U35A G41A C46U G68A, the yeast fitness is not above 0.5. In the case of G25A G44C G50C A57G U64C it was not above 0.5; in that of U2A U19C G48C U59A, not above 0.5; in that of C24U U26C C55G, not above 0.5. Under C5G G52A A70U stands not above 0.5. Under C4A A15G C33G C60A stands not above 0.5; under C5U G23C A45C A70U, not above 0.5; under C4A C11A C33G A37G A40C C49G G67C, not above 0.5. With U13C G18U C22A C33A, the yeast fitness is not above 0.5. Consider U28G C30G A40C A42U G63C, for which the yeast fitness is not above 0.5. In the case of G10A C33U A43U C49G G50C C61U C66U it was not above 0.5; in that of C30U C61U, 0.826. Consider G10C C24G, for which the yeast fitness was not above 0.5. Under U3A C31A C34A A37C C60G A65G stands not above 0.5; under C11U A45U, 0.951. In the case of A21C G44C G50A A57G G68C, the yeast fitness is not above 0.5. Under G6A C22G C24U U47A A70C stands not above 0.5. Under C11U C33G G50A A69U stands not above 0.5. In the case of U7A G23A A42G C62U it was not above 0.5; in that of U7G U13C C31U, 0.903; in that of G23C C31A C62A, 0.527.

As for U2G G38A A42C U54C, the yeast fitness was not above 0.5. In the case of C24G C27U A40U it was not above 0.5.

Take C4G G17C A20C U28A C46A: the yeast fitness is not above 0.5. In the case of C27G A36G A40G it was not above 0.5; in that of G52C A57C, 0.526; in that of U3A C4U C33G C34G A57U C61U, not above 0.5.

As for C24U A45G A69U, the yeast fitness amounted to 0.888. In the case of A14U A20C G23A C46A U64C it was not above 0.5; in that of C11G C66G, not above 0.5.

U13A U59A: the yeast fitness amounted to 0.827. For the variant G9A G12C C31A C33G A43C A69U A70C, the yeast fitness is not above 0.5.

Take G12C A57C C66G: the yeast fitness is not above 0.5. In the case of G6C A15G G56C it was not above 0.5; in that of C4G A20C U54G, 0.529. Under U8A A43C C61G stands not above 0.5. Under U13C C29G A40C A42C stands not above 0.5. Turning to U8C G38C A70C, the yeast fitness was not above 0.5.

With C4A C30G A40U G44A G50A C55U, the yeast fitness was not above 0.5.

With C22U A57G C60A, the yeast fitness is not above 0.5.

With G10A C30G C60G G63A A65U C66U, the yeast fitness is not above 0.5. Under G9A G12A U19G U35C A40U stands not above 0.5; under G50C G51A G63C, not above 0.5. Turning to U54C C61A G68U, the yeast fitness is not above 0.5. Under C4A G12A C62U stands not above 0.5; under U2A C5G C22G G56A, not above 0.5.

For the variant U3A A15G U19A G41A G50A A65U, the yeast fitness was not above 0.5. For the variant C31U C33U A42C, the yeast fitness came to 0.562. As to C5G C22U U26G U32A U35A U53A, the yeast fitness was not above 0.5.

For C22G C27G C31G C49U C61G A69U, the yeast fitness came to 0.534. Under C24U A43U U47G stands not above 0.5; under G9C G12C A40U G41A C66U, not above 0.5.

On to U16A C30G C34G A42U, for which the yeast fitness is not above 0.5. In the case of U16C A36G G39A A45G U59A it was not above 0.5; in that of C4G C24U A65C, not above 0.5; in that of U7C C29A A40G C62A, not above 0.5.

On to C11U G39A C55G G56A A69U A70G, for which the yeast fitness was not above 0.5. Under C11G C31U C33A C66A stands not above 0.5; under A40C G41C A57C G58A, not above 0.5. Under U13G C22U C31A C49A G67C stands not above 0.5; under C5G A14U G25A G56A G67A, not above 0.5. With G25C A36U G56C A65C, the yeast fitness was not above 0.5. In the case of G12A G25A U32C it was 0.749; in that of C5A C22U C49U G50C A65C, not above 0.5; in that of C34A U53A, 0.541. In the case of G6A G17A C27U C31G C66G it was not above 0.5; in that of U28C C46A U64A, not above 0.5. Under U7G C30U G38A G50A stands 0.589; under G6A A14C A37U, 0.689. In the case of C11A A21C C31A C46G, the yeast fitness was not above 0.5. C27A U32A C61G U64C: the yeast fitness was not above 0.5. In the case of G10A A37C G48A it was not above 0.5; in that of G9C G39A A40G C49G A70C, not above 0.5; in that of C4U U16C U32A G58A C60U, not above 0.5. In the case of C11G A14C C30U it was not above 0.5. Turning to A42U A43G G52C C60G, the yeast fitness was not above 0.5. As to C11G G41C, the yeast fitness worked out at 0.662.

U16G A45G: the yeast fitness was 1. In the case of A15U C30U A36U A43G it was not above 0.5; in that of C22A C30U A69C, not above 0.5.

Regarding C11G A15U C34G C62G, the yeast fitness is not above 0.5.
